# Values of other authors in US20230165842A1, “NEW USES” (priority 2020, published 2023).
# Test system: Vero E6 and Calu-3 cells
# Details: approx. 7× the most efficacious antiviral concentration of 300 μM
structure (smiles),measurement,value
"COC(=O)C1=C(C)NC(C)=C(C(=O)OC)C1c1ccccc1[N+](=O)[O-] [Compound 51, nifedipine]",cytotoxic effect,did not show a significant cytotoxic effect
